The results in this text go back to publication PMC7948815.

Protein sequences, listed by entry. Tags and fused reporters are not part of them. Lines headed by an entry give the natural chain unless they say otherwise; changes in a name come on top. Chains listed by the source or under a name are the forms on record and can include a tag or linker.
human PCIF1 (phosphorylated RNA polymerase II CTD interacting factor 1), full-length (Q9H4Z3, form named): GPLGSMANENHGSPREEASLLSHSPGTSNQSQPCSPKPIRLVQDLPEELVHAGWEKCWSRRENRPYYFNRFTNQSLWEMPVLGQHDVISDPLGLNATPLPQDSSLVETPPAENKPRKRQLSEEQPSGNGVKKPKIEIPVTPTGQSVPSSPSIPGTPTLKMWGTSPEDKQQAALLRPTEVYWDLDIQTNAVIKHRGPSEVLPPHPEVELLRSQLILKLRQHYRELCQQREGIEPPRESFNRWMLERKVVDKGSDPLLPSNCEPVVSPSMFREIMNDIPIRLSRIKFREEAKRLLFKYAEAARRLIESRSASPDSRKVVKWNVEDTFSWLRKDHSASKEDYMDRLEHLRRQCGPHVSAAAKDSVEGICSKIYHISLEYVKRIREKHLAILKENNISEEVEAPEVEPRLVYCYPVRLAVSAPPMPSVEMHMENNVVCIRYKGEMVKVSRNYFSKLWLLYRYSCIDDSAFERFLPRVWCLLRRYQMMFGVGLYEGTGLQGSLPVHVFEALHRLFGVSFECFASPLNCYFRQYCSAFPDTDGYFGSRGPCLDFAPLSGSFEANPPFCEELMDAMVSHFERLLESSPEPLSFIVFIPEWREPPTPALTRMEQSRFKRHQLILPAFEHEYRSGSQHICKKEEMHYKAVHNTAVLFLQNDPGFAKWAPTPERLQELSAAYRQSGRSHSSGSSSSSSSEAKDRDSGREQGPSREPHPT

These are yes or no findings as the source states them, for the method shown.

Assay [1] deals with human PCIF1 (phosphorylated RNA polymerase II CTD interacting factor 1), full-length (human) (UniProt Q9H4Z3). The assay is described as follows: SEC; Superdex 200 in 20 mM Tris-HCl pH 8.0, 150 mM NaCl, 5% glycerol, 0.5 mM TCEP; 4 °C; apparent molecular weight; both purified. (In general: Size exclusion chromatography separates by hydrodynamic size, large species first.)
The target is the same in assay [2]. The experiment in a line: SEC-MALS; Shodex KW803 column; PCIF1 at 4 mg/ml in 20 mM Tris-HCl pH 7.5, 150 mM NaCl, 0.1% β-mercaptoethanol; 18-angle DAWN HELEOS II detector; both purified.
Assay [3] has the same target. The experiment in a line: SEC-SAXS; same SEC fractions as for MALS; PCIF1 at 4 mg/ml in 20 mM Tris-HCl pH 7.5, 150 mM NaCl, 0.1% β-mercaptoethanol; 20 °C; ALS Beamline 12.3.1; both purified.

On to “human PCIF1 (phosphorylated RNA polymerase II CTD interacting factor 1), full-length (from UniProt Q9H4Z3 1-704) (enzyme)”, for which the values for the binding entry in assay [1], in assay [2] and in assay [3] were “no binding”, “no binding (tested: 4 mg/ml)” and “no binding (tested: 4 mg/ml)”, respectively.
